Source: patent publication US20190218304A1, “POTENTIATING THE EFFECT OF ATP RELEASE” (INNATE PHARMA, priority 2017, published 2019)
These are yes or no findings as the source states them, for the method shown. Some binding calls cover weakened binding; strength is not graded here.

Legend:
Experiment in all cases: flow cytometry on transfected Hek-293T cells
CD39 mutant 1 (human) = target: T1, CD39 mutant 1 (human) (UniProt P49961)
T1 sequence: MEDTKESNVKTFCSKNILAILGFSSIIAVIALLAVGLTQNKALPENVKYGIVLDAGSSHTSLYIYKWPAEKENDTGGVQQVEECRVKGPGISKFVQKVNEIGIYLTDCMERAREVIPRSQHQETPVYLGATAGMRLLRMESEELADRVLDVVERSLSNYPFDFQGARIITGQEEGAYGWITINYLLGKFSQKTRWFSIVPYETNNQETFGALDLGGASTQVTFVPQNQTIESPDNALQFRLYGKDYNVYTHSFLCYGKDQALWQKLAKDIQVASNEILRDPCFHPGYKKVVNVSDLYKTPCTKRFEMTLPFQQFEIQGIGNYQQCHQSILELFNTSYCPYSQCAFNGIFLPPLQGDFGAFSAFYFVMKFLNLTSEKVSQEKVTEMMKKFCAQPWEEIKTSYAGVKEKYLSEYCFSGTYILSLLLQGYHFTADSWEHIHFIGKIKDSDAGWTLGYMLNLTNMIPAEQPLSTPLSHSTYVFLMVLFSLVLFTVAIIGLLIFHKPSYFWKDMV

CD39 mutant 8 (human) = target: T2, CD39 mutant 8 (human) (UniProt P49961)
T2 sequence: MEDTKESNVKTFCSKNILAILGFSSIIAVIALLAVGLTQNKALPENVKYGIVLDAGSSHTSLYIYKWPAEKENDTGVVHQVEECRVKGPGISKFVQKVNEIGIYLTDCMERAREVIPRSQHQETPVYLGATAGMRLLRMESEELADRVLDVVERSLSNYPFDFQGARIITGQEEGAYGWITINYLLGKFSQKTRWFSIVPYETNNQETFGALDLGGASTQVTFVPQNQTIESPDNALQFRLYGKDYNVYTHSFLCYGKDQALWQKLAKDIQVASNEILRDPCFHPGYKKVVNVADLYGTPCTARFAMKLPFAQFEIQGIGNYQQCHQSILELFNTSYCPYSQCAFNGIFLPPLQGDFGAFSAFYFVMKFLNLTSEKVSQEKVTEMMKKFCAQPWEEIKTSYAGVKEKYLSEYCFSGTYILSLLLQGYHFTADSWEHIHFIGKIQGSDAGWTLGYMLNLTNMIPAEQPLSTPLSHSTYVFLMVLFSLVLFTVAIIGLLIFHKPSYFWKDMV

CD39 mutant 10A (human) = target: T3, CD39 mutant 10A (human) (UniProt P49961)
T3 sequence: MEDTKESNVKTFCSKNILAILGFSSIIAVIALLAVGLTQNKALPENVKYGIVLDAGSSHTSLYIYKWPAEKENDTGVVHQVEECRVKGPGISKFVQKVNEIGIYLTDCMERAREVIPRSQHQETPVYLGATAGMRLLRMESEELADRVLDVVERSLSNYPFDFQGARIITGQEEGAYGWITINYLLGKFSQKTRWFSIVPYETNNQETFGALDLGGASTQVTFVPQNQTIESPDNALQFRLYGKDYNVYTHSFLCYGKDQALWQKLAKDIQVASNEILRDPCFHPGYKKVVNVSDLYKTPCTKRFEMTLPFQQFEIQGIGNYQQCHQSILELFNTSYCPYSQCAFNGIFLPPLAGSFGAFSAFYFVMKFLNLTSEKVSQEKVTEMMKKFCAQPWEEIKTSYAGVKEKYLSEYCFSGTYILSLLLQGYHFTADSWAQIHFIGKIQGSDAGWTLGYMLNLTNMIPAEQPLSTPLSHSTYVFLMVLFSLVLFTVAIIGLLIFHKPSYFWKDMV

CD39 mutant 17 (human) = target: T4, CD39 mutant 17 (human) (UniProt P49961)
T4 sequence: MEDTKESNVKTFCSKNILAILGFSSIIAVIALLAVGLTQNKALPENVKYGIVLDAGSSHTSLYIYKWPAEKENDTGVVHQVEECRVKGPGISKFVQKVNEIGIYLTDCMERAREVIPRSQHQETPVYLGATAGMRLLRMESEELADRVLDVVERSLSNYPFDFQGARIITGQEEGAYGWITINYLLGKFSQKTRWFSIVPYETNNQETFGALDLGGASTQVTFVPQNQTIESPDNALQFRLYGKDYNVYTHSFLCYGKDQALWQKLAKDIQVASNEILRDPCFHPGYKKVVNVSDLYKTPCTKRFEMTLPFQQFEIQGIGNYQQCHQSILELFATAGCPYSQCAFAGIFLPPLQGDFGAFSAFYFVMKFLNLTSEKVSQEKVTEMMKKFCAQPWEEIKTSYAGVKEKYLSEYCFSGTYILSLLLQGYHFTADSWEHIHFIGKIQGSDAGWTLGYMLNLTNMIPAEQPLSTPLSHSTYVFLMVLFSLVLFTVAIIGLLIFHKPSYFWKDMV

CD39 mutant 3 (human) = target: T5, CD39 mutant 3 (human) (UniProt P49961)
T5 sequence: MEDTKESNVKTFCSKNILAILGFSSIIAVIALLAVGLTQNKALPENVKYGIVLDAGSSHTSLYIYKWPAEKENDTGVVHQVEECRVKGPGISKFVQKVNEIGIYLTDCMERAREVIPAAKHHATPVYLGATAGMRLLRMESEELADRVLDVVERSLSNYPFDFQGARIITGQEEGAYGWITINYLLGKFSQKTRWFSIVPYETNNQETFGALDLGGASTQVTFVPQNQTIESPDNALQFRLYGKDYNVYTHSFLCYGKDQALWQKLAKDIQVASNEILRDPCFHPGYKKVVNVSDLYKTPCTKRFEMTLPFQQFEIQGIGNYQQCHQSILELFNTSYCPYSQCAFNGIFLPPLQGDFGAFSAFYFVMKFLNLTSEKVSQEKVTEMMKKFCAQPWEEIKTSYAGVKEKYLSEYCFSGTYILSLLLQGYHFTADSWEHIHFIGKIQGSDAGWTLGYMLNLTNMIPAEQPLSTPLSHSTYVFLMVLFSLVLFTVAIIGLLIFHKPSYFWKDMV

Measured: binding

B1: antibody I-399 (antibody, V domains shown)
VH: PVQLQQPGAEVVMPGASVKLSCKASGYTFTSFWMNWMRQRPGQGLEWIGEIDPSDFYTNSNQRFKGKATLTVDKSSSTAYMQLSSLTSEDSAVYFCARGDFGWYFDVWGTGTSVTVSS
VL: EIVLTQSPTTMTSSPGEKITFTCSASSSINSNYLHWYQQKPGFSPKLLIYRTSNLASGVPTRFSGSGSGTSYSLTIGTMEAEDVATYYCQQGSSLPRTFGGGTKLEIK
binds: all assays above
